Consider three molecules from article PMC5048756.

Sequences of proteins named here, by UniProt entry; tags and fusion partners are left off.
UniProt P07356: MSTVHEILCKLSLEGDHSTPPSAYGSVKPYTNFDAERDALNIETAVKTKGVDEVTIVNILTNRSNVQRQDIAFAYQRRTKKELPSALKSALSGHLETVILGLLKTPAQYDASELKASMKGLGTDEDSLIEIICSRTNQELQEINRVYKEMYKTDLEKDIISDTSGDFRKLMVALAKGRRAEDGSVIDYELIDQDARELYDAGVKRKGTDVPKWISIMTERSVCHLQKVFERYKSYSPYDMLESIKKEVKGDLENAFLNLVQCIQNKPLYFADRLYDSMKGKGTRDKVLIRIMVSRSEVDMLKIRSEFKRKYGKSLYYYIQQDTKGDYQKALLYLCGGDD

The chains are these.
T1: FLAG-tagged STAT1α (STAT1α^FLAG) (UniProt P42225)
T1 sequence: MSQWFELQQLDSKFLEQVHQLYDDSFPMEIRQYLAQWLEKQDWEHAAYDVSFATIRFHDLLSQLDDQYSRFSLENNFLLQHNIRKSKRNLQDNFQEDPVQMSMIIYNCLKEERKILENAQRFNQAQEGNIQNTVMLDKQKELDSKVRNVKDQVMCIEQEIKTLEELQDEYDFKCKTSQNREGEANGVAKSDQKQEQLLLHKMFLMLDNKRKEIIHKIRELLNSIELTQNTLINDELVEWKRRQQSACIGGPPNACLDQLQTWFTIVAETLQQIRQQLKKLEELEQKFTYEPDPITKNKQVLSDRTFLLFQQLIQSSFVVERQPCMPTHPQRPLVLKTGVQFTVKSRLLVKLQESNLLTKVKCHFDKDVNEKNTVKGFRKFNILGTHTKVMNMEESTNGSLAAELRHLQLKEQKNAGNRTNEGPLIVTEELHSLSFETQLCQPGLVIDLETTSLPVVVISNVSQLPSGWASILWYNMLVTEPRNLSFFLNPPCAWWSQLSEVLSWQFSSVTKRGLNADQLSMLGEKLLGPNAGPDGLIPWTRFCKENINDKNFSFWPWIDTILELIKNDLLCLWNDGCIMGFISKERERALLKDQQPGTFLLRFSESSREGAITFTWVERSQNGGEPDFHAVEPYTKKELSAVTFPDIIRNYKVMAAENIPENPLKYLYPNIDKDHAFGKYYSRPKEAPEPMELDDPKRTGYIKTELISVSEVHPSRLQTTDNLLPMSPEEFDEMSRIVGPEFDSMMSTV

B1: protein phosphatase 1B (PPM1B) (enzyme, UniProt P36993 1-390)
chain: MGAFLDKPKTEKHNAHGAGNGLRYGLSSMQGWRVEMEDAHTAVVGIPHGLDNWSFFAVYDGHAGSRVANYCSTHLLEHITTNEDFRAADKSGSALEPSVESVKTGIRTGFLKIDEYMRNFSDLRNGMDRSGSTAVGVMVSPTHMYFINCGDSRAVLCRNGQVCFSTQDHKPCNPVEKERIQNAGGSVMIQRVNGSLAVSRALGDYDYKCVDGKGPTEQLVSPEPEVYEIVRAEEDEFVVLACDGIWDVMSNEELCEFVKSRLEVSDDLENVCNWVVDTCLHKGSRDNMSVVLVCFSNAPKVSEEAVKRDSELDKHLESRVEEIMQKSGEEGMPDLAHVMRILSAENIPNLPPGGGLAGKRHVIEAVYSRLNPHKDNDGGAGDLEDSLVAL
B2: perforin (protein, UniProt P10820 21-554)
chain: PCYTATRSECKQKHKFVPGVWMAGEGMDVTTLRRSGSFPVNTQRFLRPDRTCTLCKNSLMRDATQRLPVAITHWRPHSSHCQRNVAAAKVHSTEGVAREAAANINNDWRVGLDVNPRPEANMRASVAGSHSKVANFAAEKTYQDQYNFNSDTVECRMYSFRLVQKPPLHLDFKKALRALPRNFNSSTEHAYHRLISSYGTHFITAVDLGGRISVLTALRTCQLTLNGLTADEVGDCLNVEAQVSIGAQASVSSEYKACEEKKKQHKMATSFHQTYRERHVEVLGGPLDSTHDLLFGNQATPEQFSTWTASLPSNPGLVDYSLEPLHTLLEEQNPKREALRQAISHYIMSRARWQNCSRPCRSGQHKSSHDSCQCECQDSKVTNQDCCPRQRGLAHLVVSNFRAEHLWGDYTTATDAYLKVFFGGQEFRTGVVWNNNNPRWTDKMDFENVLLSTGGPLRVQVWDADYGWDDDLLGSCDRSPHSGFHEVTCELNHGRVKFSYHAKCLPHLTGGTCLEYAPQGLLGDPPGNRSGAVW

Results are given in words; binding and its absence hold for the method and conditions named. Binding seen in cells or lysates may run through a third protein. Some results given as binding are weak or reduced against the parent protein; the word gives no strength. Sequences can lack the tags named with a protein.

The assay deals with T1, FLAG-tagged STAT1α (STAT1α^FLAG). The assay is described as follows: co-IP; STAT1α^FLAG precipitated with ANTI-FLAG M2 Affinity Gel from lysates of Stat1^ind NK cells, unstimulated or co-incubated for 30 min with Jurkat cells; IP lysis buffer 50 mM HEPES pH 7.5, 0.1% Tween-20, 150 mM NaCl, 1 mM EDTA; Western blot of the eluate.
For annexin A2 (from UniProt P07356 1-339), the binding result is reported as “binds”. Under B1 stands “binds”; under B2, “binds”.
